Results deposited as PubChem BioAssay AID602196 (INSERM, 2012).
Aim: 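Knock-downs that protect lung cancer cells from cisplatin or sensitise them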. System: human A549 lung cancer cells. Reagents: siRNA pair against human genes. Timing: 48 h transfection before cisplatin; time from cisplatin to read-out not stated. Treatment: cisplatin at a dose killing half of control-siRNA cells; exact dose and duration not given. Detection: 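Cisplatin cell death as a shift from the 50% death seen with control siRNA; siRNAs toxic or growth-blocking alone scored 0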. Reading the numbers: two-siRNA summed score (-2 to +2): higher = both siRNAs protect from cisplatin killing; -2 means both sensitise; mean protection from cisplatin (shift in death): higher = protection from cisplatin killing. Call rule: 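Each siRNA scores 0 if harmful alone by LDH or WST-1, otherwise +1 if it reduces and -1 if it increases cisplatin killing; a gene is active when both siRNAs agree (sum +2 or -2)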. Meaning of the calls: active = both siRNAs shift cisplatin killing the same way; inactive = no consistent shift, or siRNA harmful alone.
The deposit covers about 23,000 reagents; below is a part drawn at random. 455 of them (2%) were called active. 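Active includes both protection and sensitisation; some change values fall well beyond the stated -50 to +50 range.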 Further read-outs or replicates are left out here. Not given: the amount of reagent.

C5orf15
- two-siRNA summed score (-2 to +2): 1
- mean protection from cisplatin (shift in death) (%): 13.9
- Outcome: inactive

CLDN4
- two-siRNA summed score (-2 to +2): 1
- mean protection from cisplatin (shift in death) (%): 12.7
- Outcome: inactive

LINC00934
- two-siRNA summed score (-2 to +2): 0
- mean protection from cisplatin (shift in death) (%): 14.6
- Outcome: inactive

ARSL
- two-siRNA summed score (-2 to +2): 0
- mean protection from cisplatin (shift in death) (%): 1.8
- Outcome: inactive

POGK
- two-siRNA summed score (-2 to +2): 0
- mean protection from cisplatin (shift in death) (%): 7.1
- Outcome: inactive

F11R
- two-siRNA summed score (-2 to +2): 0
- mean protection from cisplatin (shift in death) (%): -6
- Outcome: inactive

TSEN2
- two-siRNA summed score (-2 to +2): 0
- mean protection from cisplatin (shift in death) (%): 10.8
- Outcome: inactive

C19orf25
- two-siRNA summed score (-2 to +2): 0
- mean protection from cisplatin (shift in death) (%): -1.4
- Outcome: inactive

PLA2G15
- two-siRNA summed score (-2 to +2): 0
- mean protection from cisplatin (shift in death) (%): -2.2
- Outcome: inactive

MOSPD1
- two-siRNA summed score (-2 to +2): 0
- mean protection from cisplatin (shift in death) (%): 1.1
- Outcome: inactive

GIGYF1
- two-siRNA summed score (-2 to +2): -1
- mean protection from cisplatin (shift in death) (%): -3.2
- Outcome: inactive

ARPIN
- two-siRNA summed score (-2 to +2): 0
- mean protection from cisplatin (shift in death) (%): -0.7
- Outcome: inactive

IFNAR2
- two-siRNA summed score (-2 to +2): 0
- mean protection from cisplatin (shift in death) (%): -2.4
- Outcome: inactive

NPIPB12
- two-siRNA summed score (-2 to +2): 0
- mean protection from cisplatin (shift in death) (%): 17.6
- Outcome: inactive

HARBI1
- two-siRNA summed score (-2 to +2): 0
- mean protection from cisplatin (shift in death) (%): 3.3
- Outcome: inactive

TEX2
- two-siRNA summed score (-2 to +2): 0
- mean protection from cisplatin (shift in death) (%): 8.1
- Outcome: inactive

PNLIP
- two-siRNA summed score (-2 to +2): 0
- mean protection from cisplatin (shift in death) (%): -0.2
- Outcome: inactive

FES
- two-siRNA summed score (-2 to +2): 1
- mean protection from cisplatin (shift in death) (%): 9.9
- Outcome: inactive

LOC390811
- two-siRNA summed score (-2 to +2): 1
- mean protection from cisplatin (shift in death) (%): 4.8
- Outcome: inactive

RPF1
- two-siRNA summed score (-2 to +2): 0
- mean protection from cisplatin (shift in death) (%): 16.2
- Outcome: inactive

LOC390988
- two-siRNA summed score (-2 to +2): 0
- mean protection from cisplatin (shift in death) (%): 7.5
- Outcome: inactive

ADSS1
- two-siRNA summed score (-2 to +2): 0
- mean protection from cisplatin (shift in death) (%): 0.1
- Outcome: inactive

CEP57L1P1
- two-siRNA summed score (-2 to +2): 2
- mean protection from cisplatin (shift in death) (%): 17.4
- Outcome: active

POFUT3
- two-siRNA summed score (-2 to +2): 0
- mean protection from cisplatin (shift in death) (%): 2.4
- Outcome: inactive

SUGP2
- two-siRNA summed score (-2 to +2): -1
- mean protection from cisplatin (shift in death) (%): -6.6
- Outcome: inactive

LINC00654
- two-siRNA summed score (-2 to +2): 0
- mean protection from cisplatin (shift in death) (%): 29.7
- Outcome: inactive

MICA
- two-siRNA summed score (-2 to +2): -1
- mean protection from cisplatin (shift in death) (%): -15.8
- Outcome: inactive

SIX1
- two-siRNA summed score (-2 to +2): 1
- mean protection from cisplatin (shift in death) (%): 6.4
- Outcome: inactive

NNAT
- two-siRNA summed score (-2 to +2): 0
- mean protection from cisplatin (shift in death) (%): 4.8
- Outcome: inactive

BTF3L4
- two-siRNA summed score (-2 to +2): 1
- mean protection from cisplatin (shift in death) (%): 16.3
- Outcome: inactive

LOC442431
- two-siRNA summed score (-2 to +2): 0
- mean protection from cisplatin (shift in death) (%): 2.2
- Outcome: inactive

Not a retest: 5 of the entries above.
HARBI1
- two-siRNA summed score (-2 to +2): 0
- mean protection from cisplatin (shift in death) (%): 3.3
- Outcome: inactive

TEX2
- two-siRNA summed score (-2 to +2): 0
- mean protection from cisplatin (shift in death) (%): 8.1
- Outcome: inactive

PNLIP
- two-siRNA summed score (-2 to +2): 0
- mean protection from cisplatin (shift in death) (%): -0.2
- Outcome: inactive

FES
- two-siRNA summed score (-2 to +2): 1
- mean protection from cisplatin (shift in death) (%): 9.9
- Outcome: inactive

LOC390811
- two-siRNA summed score (-2 to +2): 1
- mean protection from cisplatin (shift in death) (%): 4.8
- Outcome: inactive
